# Measured values reported in PubChem BioAssay AID504444 (National Center for Advancing Translational Sciences (NCATS), 2011).
# Hit rate of the full screen: of about 360,000 compounds, about 7,500 (2.1%) were called active. This list was built around the results that the source calls inconclusive (neither active nor inactive); the mix of calls is not that of the screen. The call rests on the fitted dose curve; in most records, active means well fitted inhibition curve with a large enough effect; inconclusive means small, poorly fitted or top-dose-only effect, or effect the other way; inactive means flat fitted curve, though single readings scatter. Where the call is inconclusive, the potency comes from a doubtful curve fit.
# Assay: Nrf2 qHTS screen for inhibitors; further: nearly all actives have a fitted effect of over 60% in size
# Conditions: A549 ARE-Fluc reporter, luciferase luminescence, 18-24 h; activity change, negative = inhibition: at 46 µM (top of the series)
# Procedure, shortened: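 Nrf2 activity is the BugLite luminescence, read 15 min after reagent at room temperature, following CellTiter-Fluor cytotoxicity readout (30 min, 37C). Compound titrations were applied for 18-24 h to 5000 A549 ARE_Fluc cells/well in 5% FBS OPTI-MEM.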
# On the % scale 0 is the no-effect control and ±100 the full control effect; potency means the concentration at half of the fitted maximal effect.
SMILES,Potency,"activity change, negative = inhibition"
O=C(Cn1c(C(F)(F)F)nc2ccccc21)c1ccc(Cl)cc1,"inconclusive: 13 µM [falling, partial curve, poor fit]",
C/C(=N\NC(=O)c1c(C)nc2ccccn12)c1ccco1,,inactive: 0.53%
CCc1ccc(O)c(C(=O)c2cnc3cc(-c4ccc(C)cc4)nn3c2)c1,,inactive: 11.4%
CCN(CC)C(=O)Cn1cc(S(=O)(=O)CC(=O)Nc2ccccc2C)c2ccccc21,,inactive: 12.6%
Cc1noc(C)c1C(=O)OCC(=O)Nc1cccc(S(N)(=O)=O)c1,"inconclusive: 11.6 µM [activator, partial curve, poor fit]",
CCNC(=S)Nc1ccc(-c2nc3ccccc3[nH]2)cc1,"inconclusive: 1.64 µM [activator, partial curve, poor fit]",
CCc1ccc(/C(C)=N/NC(=O)c2ccc(-n3cnnn3)cc2)cc1,,inactive: -27%
O=C(O)c1cc(N/N=C/c2ccc(-c3ccc(F)cc3)o2)ccc1Cl,"inconclusive: 18.4 µM [activator, single point]",
CCOC(=O)c1[nH]c2ccc(OC)cc2c1NC(=S)N1CCN(c2ccccn2)CC1,,inactive: 4.15%
CCCCOc1c(Br)cc(/C=C2\N=C(C)OC2=O)cc1OCC,"inconclusive: 18.4 µM [falling, partial curve, poor fit]",
Cc1ccc2c(c1)c(/C=C/c1cc[n+](C)cc1)c(C)n2C,active: 3.66 µM,
c1ccc(CCNc2nc3ccccc3s2)cc1,"inconclusive: 29.1 µM [activator, single point]",
CCN[C@H]1C[C@H](C)S(=O)(=O)c2sc(S(N)(=O)=O)cc21,"inconclusive: 14.6 µM [activator, partial curve]",
CNC(=O)C1(C(F)(F)F)CC(CCCO)CCCO1 (centres undefined),,inactive: 3.63%
Cc1cnc(NC(=O)CC(C)c2ccccc2)s1 (centres undefined),"inconclusive: 23.1 µM [activator, partial curve, poor fit]",
COC(=O)c1cn(CC(=O)N2CCCCC2C)c2ccccc12 (centres undefined),"inconclusive: 23.1 µM [activator, partial curve, poor fit]",
CCOc1ccc(CCNC(=O)C(C)N2C(=O)CC(C)(C)Sc3ccccc32)cc1 (centres undefined),"inconclusive: 14.6 µM [falling, partial curve, poor fit]",
Cc1ccc(C(=O)NCCCc2ccccc2)c(C)c1,"inconclusive: 5.8 µM [activator, partial curve]",
CN1CCN(C(=O)CCN2C(=O)/C(=C\c3ccc(Cl)cc3Cl)SC2=S)CC1,"inconclusive: 2.91 µM [activator, full curve, poor fit]",
CC1Cc2ccccc2N1S(=O)(=O)c1cccc(C(=O)Nc2cccnc2)c1 (centres undefined),"inconclusive: 20.6 µM [falling, single point]",
COc1cc(-c2cc(C(=O)Nc3nc4ccccc4s3)c3ccccc3n2)cc(OC)c1OC,,inactive: 3.94%
COc1ccc(C2NC(=O)c3ccccc3N2)cc1COc1ccc(NC(C)=O)cc1 (centres undefined),,inactive: 9.26%

SMILES,Potency,"activity change, negative = inhibition"
CCOC(=O)CSc1ccc(-c2nc3ccccc3[nH]2)cn1,,inactive: 8.34%
COc1ccc(-n2c(C)cc(C(=O)CN3C(=O)NC4(CCCc5sccc54)C3=O)c2C)cc1 (centres undefined),"inconclusive: 29.1 µM [falling, single point]",
COc1cccc(C(=O)NC(=O)Nc2cc(C)[nH]n2)c1,"inconclusive: 9.2 µM [activator, partial curve]",
CCC(=O)Nc1ccc2nn(-c3ccc(F)cc3)nc2c1,"inconclusive: 5.8 µM [activator, partial curve, poor fit]",
Cc1cc(C)n2nc(SCC3COc4ccccc4O3)nc2n1 (centres undefined),"inconclusive: 3.26 µM [activator, full curve, poor fit]",
Clc1ccc(CN2CCC(CNc3ncnc4onc(-c5ccc(Cl)cc5)c34)CC2)cc1,"inconclusive: 0.731 µM [activator, partial curve]",
Fc1ccc(NCc2nnc(SCc3nnc(-c4ccccc4)o3)n2Cc2ccccc2)cc1,"inconclusive: 9.2 µM [falling, partial curve, poor fit]",
O=C(c1cccs1)N1CCCC(c2nc3c(nnn3Cc3ccccc3Cl)c(=O)[nH]2)C1 (centres undefined),"inconclusive: 6.51 µM [activator, full curve]",
O=C(CN(Cc1ccccc1)S(=O)(=O)c1ccc(Br)cc1)NCC1CCCO1 (centres undefined),,inactive: -14%
COc1ccc(-c2noc(CCC(=O)N3CCN(c4cccc(C)c4)CC3)n2)cc1,,inactive: -21.2%
Cc1ccc(NC(=O)c2c(Cl)n(C)c3ccccc23)cc1,"inconclusive: 18.4 µM [activator, partial curve, poor fit]",
COc1ccccc1C(=O)N(Cc1nc(-c2ccc(Cl)cc2)no1)C(C)C,active: 20.6 µM,
N#Cc1ccsc1NC(=O)c1ccc(Cl)c([N+](=O)[O-])c1,,inactive: 0%
COc1ccc(C(C(=O)NC2CCCCC2)N(C(=O)c2sc(C)nc2C)c2ccc(OC)cc2)cc1 (centres undefined),"inconclusive: 23.1 µM [falling, single point]",
CNC(=O)C1CCC(Cn2c(=O)c3sccc3n(CC(=O)NCc3ccc(OC)cc3)c2=O)CC1 (centres undefined),"inconclusive: 18.4 µM [activator, single point]",
CC(=O)Nc1ccc(S(=O)(=O)NCCSCc2c(Cl)cccc2Cl)cc1,active: 14.6 µM,
O=S(=O)(NC1c2cccc3cccc(c23)C1Sc1ncccn1)c1ccc(Cl)cc1 (centres undefined),"inconclusive: 18.4 µM [falling, single point]",
C=CCN1C(=O)c2cccc3c(N4CCCCC4)ccc(c23)C1=O,"inconclusive: 9.2 µM [activator, partial curve, poor fit]",
Cc1ccc(S(=O)(=O)N2CCOCC2)cc1C(=O)OC1CCOC1=O (centres undefined),,inactive: 7.41%
COc1ccc2cc(CCNC(=O)CC(C)(C)C)c(=O)[nH]c2c1,,inactive: 0.254%
CCC(C)(C)n1nnnc1C(c1cc(OC)ccc1OC)N1CCN(Cc2ccccc2)CC1 (centres undefined),"inconclusive: 25.9 µM [activator, single point]",
CCOc1ccc(-c2cc(C(=O)N/N=C/c3ccc(O)cc3)c3ccccc3n2)cc1,"inconclusive: 29.1 µM [activator, single point]",

# Shown with bars between the fields: two of the compounds above.
SMILES | Potency | activity change, negative = inhibition
Clc1ccc(CN2CCC(CNc3ncnc4onc(-c5ccc(Cl)cc5)c34)CC2)cc1 | inconclusive: 0.731 µM [activator, partial curve] | 
C=CCN1C(=O)c2cccc3c(N4CCCCC4)ccc(c23)C1=O | inconclusive: 9.2 µM [activator, partial curve, poor fit] | 
